Data: patent publication US10011570B2, “Nucleic acid binding dyes with improved safety” (Biotium, Inc., priority 2013, dated 2018)
Some of these results come from one statement about several compounds together.

Tested on: 1 kb DNA ladder in 1% agarose gel
Test: Post staining of agarose gels
Conditions: DNA ladders in 1% agarose gels, lowest usable concentration
Experimental: Two-fold dilutions of 1 kb DNA ladder (Biotium, 200 ng-25 ng) or low-molecular weight DNA ladder (NEB, 50-12.5 ng/lane) were separated on 1% agarose/1×TBE gels in 1× TBE at 110 V for 90 minutes. Gels were post-stained with dyes at indicated concentrations in 50 mL staining solution with rocking for 30 minutes at room temperature, protected from light. The staining solutions were prepared by adding a dye stock solution in DMSO to water. […] In particular, dyes of the invention can readily penetrate dense polyacrylamide gels. […] Use of low dye concentration in the staining, coupled with the dyes' low cell membrane permeability (See below), makes the dyes safer to handle. Compound 25 of U.S. Pat. No. 7,446,202 is an asymmetric cyanine dye comprising a negatively charged substituent. The dye is described to be a sensitive dsDNA binding dye useful for selective dsDNA quantitation in solution. In this experiment, this dye is compared with the asymmetric cyanine dye Dye No. 4 of the present invention in detecting dsDNA in agarose gel. 1 kb DNA ladder (Biotium) was loaded on a 1% agarose/1×TBE gel at 200, 100, 50, or 25 ng per lane in duplicate and separated by electrophoresis at 100V. […]

SMILES | effective dye concentration for post nucleic acid gel staining
C[n+]1c(C=C2C=CN(CCCSCC(N)C(=O)[O-])c3ccccc32)sc2ccccc21.I (centres unmarked) [Dye No. 4] | 0.3 to 0.65 µM
CC[N+](C)(CC)CCC[n+]1c(-c2ccc(S(=O)(=O)[O-])cc2)c2cc(N)ccc2c2ccc(N)cc21.[I-] [Dye No. 10] | 0.3 to 0.65 µM
